Measured values from patent US10906977B2, “Enhancing the therapeutic activity of immune checkpoint inhibitor” (Maine Medical Center Research Institute, priority 2016, dated 2021).
These are yes or no findings as the source states them, for the method shown. Some entries that bind do so weakly or less than the wild type. For some of these results: Sequences can lack the tags named with a protein.

By UniProt entry, the sequences of proteins in these tests, tags left out. Where a name states a change or a piece, a line headed by the entry shows the natural chain unless it says otherwise.
UniProt P17301: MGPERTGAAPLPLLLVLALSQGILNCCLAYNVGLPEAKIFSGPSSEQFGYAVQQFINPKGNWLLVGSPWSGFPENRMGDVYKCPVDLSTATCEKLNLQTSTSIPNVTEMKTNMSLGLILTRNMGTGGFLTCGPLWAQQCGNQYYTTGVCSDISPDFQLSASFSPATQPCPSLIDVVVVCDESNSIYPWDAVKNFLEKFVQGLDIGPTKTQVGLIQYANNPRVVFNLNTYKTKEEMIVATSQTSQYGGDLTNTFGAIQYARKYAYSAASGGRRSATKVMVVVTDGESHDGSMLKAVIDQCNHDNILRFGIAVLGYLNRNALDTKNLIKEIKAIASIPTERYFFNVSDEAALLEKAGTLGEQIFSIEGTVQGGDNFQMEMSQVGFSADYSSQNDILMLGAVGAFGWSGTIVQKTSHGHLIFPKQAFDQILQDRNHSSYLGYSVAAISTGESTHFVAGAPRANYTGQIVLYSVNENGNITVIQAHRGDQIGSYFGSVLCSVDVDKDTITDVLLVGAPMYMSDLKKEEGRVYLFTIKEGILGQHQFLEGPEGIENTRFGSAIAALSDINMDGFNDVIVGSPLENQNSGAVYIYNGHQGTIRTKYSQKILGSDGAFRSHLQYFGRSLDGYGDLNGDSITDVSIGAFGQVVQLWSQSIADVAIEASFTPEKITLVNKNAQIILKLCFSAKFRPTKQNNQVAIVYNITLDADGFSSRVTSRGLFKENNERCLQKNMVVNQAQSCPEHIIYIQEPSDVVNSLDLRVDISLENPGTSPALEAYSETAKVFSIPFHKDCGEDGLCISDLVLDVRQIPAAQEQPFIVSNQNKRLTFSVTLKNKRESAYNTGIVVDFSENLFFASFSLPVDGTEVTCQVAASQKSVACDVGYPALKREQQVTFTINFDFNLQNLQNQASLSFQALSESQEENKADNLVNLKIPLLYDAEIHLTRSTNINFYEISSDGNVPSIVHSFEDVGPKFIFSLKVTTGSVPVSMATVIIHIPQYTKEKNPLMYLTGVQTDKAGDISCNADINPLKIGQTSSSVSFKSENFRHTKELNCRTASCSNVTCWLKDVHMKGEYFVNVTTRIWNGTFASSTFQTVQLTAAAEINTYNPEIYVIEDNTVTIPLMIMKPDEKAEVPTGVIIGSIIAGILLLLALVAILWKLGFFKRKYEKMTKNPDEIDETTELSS
UniProt O75578: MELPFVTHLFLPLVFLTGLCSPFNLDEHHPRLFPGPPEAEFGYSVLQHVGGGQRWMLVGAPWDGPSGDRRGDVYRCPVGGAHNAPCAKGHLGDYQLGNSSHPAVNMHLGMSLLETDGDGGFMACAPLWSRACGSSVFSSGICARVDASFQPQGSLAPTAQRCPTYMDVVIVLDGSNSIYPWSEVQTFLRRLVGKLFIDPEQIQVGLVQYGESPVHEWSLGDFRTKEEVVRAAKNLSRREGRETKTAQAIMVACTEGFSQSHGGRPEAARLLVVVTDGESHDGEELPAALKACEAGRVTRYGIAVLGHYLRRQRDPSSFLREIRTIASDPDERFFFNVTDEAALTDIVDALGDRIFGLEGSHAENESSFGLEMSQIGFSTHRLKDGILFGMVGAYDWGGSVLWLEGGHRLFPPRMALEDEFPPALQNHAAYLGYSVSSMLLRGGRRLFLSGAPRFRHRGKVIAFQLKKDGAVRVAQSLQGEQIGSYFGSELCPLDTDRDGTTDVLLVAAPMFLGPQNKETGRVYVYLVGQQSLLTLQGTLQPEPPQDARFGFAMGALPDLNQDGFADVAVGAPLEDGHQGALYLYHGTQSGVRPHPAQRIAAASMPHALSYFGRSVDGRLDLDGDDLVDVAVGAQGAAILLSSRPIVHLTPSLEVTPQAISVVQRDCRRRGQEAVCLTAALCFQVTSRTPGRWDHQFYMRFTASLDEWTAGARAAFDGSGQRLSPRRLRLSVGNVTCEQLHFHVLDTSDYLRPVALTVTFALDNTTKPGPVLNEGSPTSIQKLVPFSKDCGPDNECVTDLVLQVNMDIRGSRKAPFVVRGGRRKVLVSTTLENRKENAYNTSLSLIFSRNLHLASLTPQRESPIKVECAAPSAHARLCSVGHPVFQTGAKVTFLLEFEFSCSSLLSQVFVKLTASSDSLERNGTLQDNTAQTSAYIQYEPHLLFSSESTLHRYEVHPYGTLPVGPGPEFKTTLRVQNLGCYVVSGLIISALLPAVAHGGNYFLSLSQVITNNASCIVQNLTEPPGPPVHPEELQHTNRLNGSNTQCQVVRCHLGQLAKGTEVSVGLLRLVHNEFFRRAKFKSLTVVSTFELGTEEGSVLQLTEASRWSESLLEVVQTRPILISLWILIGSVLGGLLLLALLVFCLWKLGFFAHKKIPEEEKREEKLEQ
UniProt P06756: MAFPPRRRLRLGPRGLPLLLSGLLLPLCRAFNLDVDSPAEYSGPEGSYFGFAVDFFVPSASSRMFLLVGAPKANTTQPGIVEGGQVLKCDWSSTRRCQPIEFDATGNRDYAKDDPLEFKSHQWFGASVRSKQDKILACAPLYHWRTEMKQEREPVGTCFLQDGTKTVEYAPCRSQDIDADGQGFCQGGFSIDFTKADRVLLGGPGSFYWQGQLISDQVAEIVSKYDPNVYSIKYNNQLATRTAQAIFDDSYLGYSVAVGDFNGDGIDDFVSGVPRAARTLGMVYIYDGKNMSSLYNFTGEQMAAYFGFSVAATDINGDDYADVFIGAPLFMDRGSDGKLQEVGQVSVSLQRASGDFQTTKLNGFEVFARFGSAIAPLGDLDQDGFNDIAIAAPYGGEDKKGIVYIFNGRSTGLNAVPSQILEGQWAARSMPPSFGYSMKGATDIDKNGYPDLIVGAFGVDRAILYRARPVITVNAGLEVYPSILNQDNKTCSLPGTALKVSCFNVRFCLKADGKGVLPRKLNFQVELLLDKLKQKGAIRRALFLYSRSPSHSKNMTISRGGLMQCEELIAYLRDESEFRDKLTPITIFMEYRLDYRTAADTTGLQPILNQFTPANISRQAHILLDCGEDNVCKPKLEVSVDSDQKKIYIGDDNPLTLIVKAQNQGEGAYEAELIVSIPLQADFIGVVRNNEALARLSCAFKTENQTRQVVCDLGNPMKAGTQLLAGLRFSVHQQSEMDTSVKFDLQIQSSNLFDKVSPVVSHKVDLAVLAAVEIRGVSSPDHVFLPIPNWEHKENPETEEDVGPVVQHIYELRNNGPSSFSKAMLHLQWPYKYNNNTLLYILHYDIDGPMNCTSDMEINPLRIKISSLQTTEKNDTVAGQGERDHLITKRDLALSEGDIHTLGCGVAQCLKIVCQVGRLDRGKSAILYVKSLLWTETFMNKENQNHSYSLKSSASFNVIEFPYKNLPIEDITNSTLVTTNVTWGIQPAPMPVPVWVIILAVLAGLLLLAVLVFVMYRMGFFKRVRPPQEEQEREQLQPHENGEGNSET

What was measured:
[1] = biological target: T1, Collagen PGF-peptide (CPGFPGFC), synthetic HU177 epitope; assay: solid-phase binding assay, integrin on immobilized PGF peptide (100 ug/ml)
T1 sequence (peptide): CPGFPGFC

[2] = biological target: T1, Collagen PGF-peptide (CPGFPGFC), synthetic HU177 epitope; assay: solid-phase binding assays (legend of FIG. 23)
[3] = biological target: T1, Collagen PGF-peptide (CPGFPGFC), synthetic HU177 epitope; assay: ELISA, recombinant integrins on immobilized cPG peptide (legend of FIG. 25)
[4] = biological target: T2, Synthetic collagen RGD containing peptide P-2 (…) (human); assay: solid phase ELISA, P-2 immobilized at 100 µg/ml, increasing recombinant αvβ3
T2 sequence (peptide): CQGPRGDKGEC

In the case of “integrin α2β1 (recombinant) (from UniProt P17301 30-1132; P05556 21-728) (receptor)”, the binding [1] is reported as “binds”.
For “integrin α10β1 (recombinant) (from UniProt O75578 23-1122; P05556 21-728) (receptor)”, the binding [2] was “binds” and the binding [3] was “binds”.
“integrin αvβ3 (recombinant) (from UniProt P06756 31-992; P05106 27-718) (receptor)” was tested, and the binding [4] was “binds”.
